# In patent US20090041784A1:
# Amino acid sequences for entries named in this document (tags omitted). A change or cut given only in a name is not applied to a line headed by its entry.
# UniProt P47871: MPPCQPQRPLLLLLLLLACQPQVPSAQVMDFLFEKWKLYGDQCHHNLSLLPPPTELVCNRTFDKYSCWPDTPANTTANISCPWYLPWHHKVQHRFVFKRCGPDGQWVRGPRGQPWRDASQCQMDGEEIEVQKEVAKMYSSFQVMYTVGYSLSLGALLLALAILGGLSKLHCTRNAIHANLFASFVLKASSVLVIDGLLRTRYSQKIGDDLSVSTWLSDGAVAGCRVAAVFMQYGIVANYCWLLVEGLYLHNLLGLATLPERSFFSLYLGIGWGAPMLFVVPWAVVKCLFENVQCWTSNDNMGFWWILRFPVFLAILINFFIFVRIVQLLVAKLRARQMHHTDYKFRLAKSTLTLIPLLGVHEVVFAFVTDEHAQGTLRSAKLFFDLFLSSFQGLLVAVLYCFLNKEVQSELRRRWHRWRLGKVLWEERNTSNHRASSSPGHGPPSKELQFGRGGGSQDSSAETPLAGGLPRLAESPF
# Results are given in words; binding and its absence hold for the method and conditions named. Some entries that bind do so weakly or less than the wild type.
# Molecular target: human glucagon receptor (human) (UniProt P47871)
# Assay: competition with 1 nM Alexa-labeled A-3 for human GCGR on CHO cells, FMAT
binder,measurement,value
"antibody A-7 (antibody, V domains shown) VH: QVQLVESGGGVVQPGRSLRLSCAASGFTFSSYDMHWVRQAPGKGLEWVAVISHDGSDKYYADSVKGRFTISRDNSKNTLYLQMSSLRAEDTAVYYCAREKPYYDILTGYFYYYGMDVWGQGTTVTVSS VL: DIQMTQSPSSLSASVGDRVTVTCRASQDIRNDFGWYQQKPGKAPKRLIYAASSLQSGVPSRFSGSGSGTEFTLTISSLQPEDFATYYCLQQNSYPLTFGGGTKVEIK",binding,binds
